Measurements as given in PubChem BioAssay AID1347423 (Functional Genomics Laboratory (NCATS/FGL), 2020).
Among all 52,000 sequences or so, about 210 (0.4%) were called active.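 How the source made its calls: active means gene whose silencing raises cell survival under the drug, median off-target-corrected z-score across its silencing RNAs 2 or more; inactive means the rest.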 Some of the results follow.

Experiment: Resistance to Poly (ADP-Ribose) Polymerase inhibitor: Gene Identification via Genome-wide siRNA Screen
Conditions: mouse BRCA2 R2336H ES cells, olaparib, CellTiter-Glo viability; active compounds read high
Outline: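 Genome-wide siRNA screen (3 siRNAs/gene, 20 nM) in mouse ES cells carrying hypomorphic BRCA2 R2336H; olaparib 500 nM added 48 h post-transfection, CellTiter-Glo viability 72 h later. Normalized to plate-median negative control; MAD z-scores, gene median, seed-adjusted.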

Sequence | z-score
GGUAUAUGAGCAGCUGUCCTT against Uxt | inactive: -0.968
GGAACCACACCAUGUGAAATT against Prdm5 | inactive: 0.301
CCUAGUAAUCAGUUUGAAUTT against Ak4 | inactive: 0.076
GGAAAUCUCCUAGAAGAAATT against Mrps18b | inactive: -0.116
GCUGCUAAUAUCAAUAACGTT against Prf1 | inactive: -0.681
CGAGUGUUCCUCCAAGUGCTT against Fhl5 | inactive: -1.45
GGAGUACCAACCAGAUUUATT against Cdc26 | inactive: -1.59
GGGUCCUCUUUCUCCUGUUTT against Ier3 | inactive: -1.2
GGACCAGGGCAAAAUAUGATT against D730048I06Rik | inactive: 0.866
GGCCAGGUAACUCUUACAATT against Trpv1 | inactive: 0.987
CGAAGUUCACUUCUUUGAGTT against D3Ertd194e | inactive: 0.699
GGAGUUCAUGAUUCUGCCATT against Eno3 | inactive: -1.28
CGAUACUGAUCACUCCUAUTT against Ugcgl1 | inactive: -0.456
GGGUCCUAGAGACUUUGAATT against Txndc5 | inactive: -0.86
CCGUUCAAACUACUUGCUGTT against Smad7 | inactive: 1.85
GGAGAAAACCAAACAAUGATT against Gpr156 | inactive: -1.09
GGCUAAACUCAAACUCACATT against D630029K05Rik | inactive: -0.503
GGCUGAACAGAUAAAUCAGTT against Stoml2 | inactive: -0.652
GCUAAAGUCGGAAAAUCAATT against Scoc | inactive: 0.448
GGCAAGCUGAAGAUGAACATT against Ntn1 | inactive: 0.736
GGACAUCCAGACAAUGAGGTT against AW060714 | inactive: 0.386
GGUGGACCAUUCUUUUUCUTT against Zfp57 | inactive: 0.645
AUUCUGCAAGUGCCGUAUGTT against Fcrlm2 | inactive: -1.89

Sequence | z-score
GCAUGAAGAGGCAAAGGCUTT against Igfbp1 | inactive: -0.909
GGUUGUGGAUCAUUAUGAATT against 2310020H20Rik | inactive: -3.21
GGCACAUAUGAGGACUACCTT against BC037527 | inactive: 0.972
GCUUGAUUAGGUAGGAAUATT against Stk32a | inactive: -0.291
CGUGCAAUCCGAUUUGUUGTT against Acaca | inactive: -0.036
GCCAAACUAUCAGAGAUGGTT against BC031853 | inactive: 0.373
CCCGGAGUGGUCAGAAGUATT against Mapkapk2 | inactive: -1.09
GCAUUUAGGUCUGAUAAAGTT against Gpr61 | inactive: -0.0963
GGGCAAAUAUGUUCUCAUUTT against Ndst3 | inactive: -0.00739
GGAUCGUUUUAAUAGUCUGTT against 2600005O03Rik | inactive: -0.952
GGCAACAGACAUUCAUCUUTT against Mfng | inactive: -0.665
GGGAUUUUGAGUUUGAUGCTT against AI790326 | inactive: 0.46
GGUUUAUGCAAUGAAGCUUTT against Rock2 | inactive: -0.276
GGUAUGAACCGUGAUCCUCTT against Lrrtm4 | inactive: 0.248
GGAACAGCAGUUUUUGUUUTT against Rnf44 | inactive: -0.113
GGAAACUGAAAAACAGAGUTT against Xbp1 | inactive: -0.321
GGGAAUCAAAGGCUUUGGGTT against Ms4a1 | inactive: 0.65
GGACUUCUUGCUGGUCUAGTT against Cmar | inactive: -1.14
GGGCCUCUUCCUUAAGCAUTT against Snx8 | inactive: -1.01
CGGAUGUGCCAUCCAUCAGTT against 5830405N20Rik | inactive: 1.39
GGCUGUGAAAAAACUAGAATT against Serpina1e | inactive: -0.121
GGUUGUCUUCAACACCAAATT against Lgals7 | inactive: -0.587
GGCCCUAGCAGAUGAAAAATT against Ubl4 | inactive: -0.29

4 entries from above, as a markdown table.

| Sequence | z-score |
| --- | --- |
| GGGCCUCUUCCUUAAGCAUTT against Snx8 | inactive: -1.01 |
| CGGAUGUGCCAUCCAUCAGTT against 5830405N20Rik | inactive: 1.39 |
| GGCUGUGAAAAAACUAGAATT against Serpina1e | inactive: -0.121 |
| GGUUGUCUUCAACACCAAATT against Lgals7 | inactive: -0.587 |

More results:

Sequence | z-score
GGUGUCGACAGGAUGGAAUTT against Adamts7 | inactive: 1.8
GCUUCUGUUCAAAUACUUATT against Tal1 | inactive: -0.0783
GCAAGAAGUAAUCAACUUUTT against Rqcd1 | active: 2
CCCUAAUUCAUUAGCUAUATT against Dhdds | inactive: 0.747
GCCACGGCCAGUAAAACAUTT against E030027H19Rik | inactive: 0.924
CGACAGAGGAAGGUAUUGGTT against 5730591C18Rik | inactive: -0.64
GGCUUUUUGCUUUAGCUUUTT against Cfl1 | inactive: -0.0664
GGGCCAUUACAGAGUUUCUTT against Apobec1 | inactive: 0.212
GCCUAAAUUUAUUCAGGUUTT against Neurod1 | inactive: 2.28
GCUUUAGAGUUCAAUAGUCTT against Zfp592 | inactive: 0.477
CGUGGAUCGGAACAGUAUCTT against Lrrc10 | inactive: -0.779
GCAGUAAAGCUUGUGUAGGTT against Mpdu1 | inactive: 0.303
GGCUGAUCCAUUUUCACAATT against Adam6 | inactive: 0.00954
GCCAAUUAAUGAUUGCUUUTT against Zfp322a | inactive: -0.131
CCACAAGCUUCAAUGACACTT against 6430571L13Rik | inactive: 0.321
GGACUUCCAGAGCUGUUUUTT against Tera | inactive: -0.107
CCGUCUAUGGUUCAAGGUCTT against Cdca8 | inactive: 0.106
GCUACAGGGAAGUAUUGAATT against Apc | inactive: 1.26
GGAAUCACAGUGCAGAAGGTT against Olfr1262 | inactive: 0.562
GCAGGUCCUGACCUAUGUGTT against Cyp27b1 | inactive: -0.276
GCGAGCUUUAACCUUUCCATT against Olfr1028 | inactive: -0.613
